The source of these data is article PMC13434659.

The experiment concerns the target T1, human PKD2, transiently over-expressed in HEK293T cells (tag not stated) (human) (UniProt Q13563).
T1 sequence: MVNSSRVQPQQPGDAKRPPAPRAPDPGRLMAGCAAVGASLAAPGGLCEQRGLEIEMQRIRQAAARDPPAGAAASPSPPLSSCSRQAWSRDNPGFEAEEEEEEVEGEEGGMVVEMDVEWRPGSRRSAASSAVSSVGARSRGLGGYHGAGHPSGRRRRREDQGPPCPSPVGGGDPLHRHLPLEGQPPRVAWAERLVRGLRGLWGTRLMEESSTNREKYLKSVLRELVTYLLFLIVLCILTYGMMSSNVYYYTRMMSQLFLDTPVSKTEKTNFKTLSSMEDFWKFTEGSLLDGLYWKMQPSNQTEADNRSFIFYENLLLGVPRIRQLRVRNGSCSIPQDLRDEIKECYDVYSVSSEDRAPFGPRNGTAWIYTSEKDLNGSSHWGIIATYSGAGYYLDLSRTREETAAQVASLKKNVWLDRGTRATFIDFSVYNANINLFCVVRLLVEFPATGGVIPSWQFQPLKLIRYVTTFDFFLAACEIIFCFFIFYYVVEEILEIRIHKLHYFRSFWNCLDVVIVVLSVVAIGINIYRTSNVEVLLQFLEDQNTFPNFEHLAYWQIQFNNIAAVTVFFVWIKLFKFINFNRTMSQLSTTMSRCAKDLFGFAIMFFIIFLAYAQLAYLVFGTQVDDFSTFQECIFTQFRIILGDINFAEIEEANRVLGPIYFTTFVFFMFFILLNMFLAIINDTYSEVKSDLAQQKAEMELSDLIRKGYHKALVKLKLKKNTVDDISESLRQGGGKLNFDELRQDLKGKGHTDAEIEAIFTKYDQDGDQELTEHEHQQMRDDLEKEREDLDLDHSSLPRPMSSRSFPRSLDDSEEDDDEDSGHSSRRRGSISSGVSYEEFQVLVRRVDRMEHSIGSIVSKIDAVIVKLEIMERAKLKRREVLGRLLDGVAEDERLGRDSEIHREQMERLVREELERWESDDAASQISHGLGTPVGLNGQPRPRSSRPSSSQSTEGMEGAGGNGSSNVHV
The experiment can be described thus: proximity labelling; biotin neighborhood labeling in HEK293T cells transiently overexpressing human PKD2, enriched complexes analysed by LC-MS/MS.

These are yes or no findings as the source states them, for the method shown. Binding seen in cells or lysates may run through a third protein. These calls come from enrichment with a bait or labelling near it, and not all partners need be listed. Sequences can lack the tags named with a protein.

B1: endogenous RASSF4 of HEK cells (protein, UniProt Q9H2L5 1-321)
chain: MKEDCLPSSHVPISDSKSIQKSELLGLLKTYNCYHEGKSFQLRHREEEGTLIIEGLLNIAWGLRRPIRLQMQDDREQVHLPSTSWMPRRPSCPLKEPSPQNGNITAQGPSIQPVHKAESSTDSSGPLEEAEEAPQLMRTKSDASCMSQRRPKCRAPGEAQRIRRHRFSINGHFYNHKTSVFTPAYGSVTNVRVNSTMTTLQVLTLLLNKFRVEDGPSEFALYIVHESGERTKLKDCEYPLISRILHGPCEKIARIFLMEADLGVEVPHEVAQYIKFEMPVLDSFVEKLKEEEEREIIKLTMKFQALRLTMLQRLEQLVEAK
For B1, the binding entry is “binds”.
